Source: patent US20220288010A1, “METHODS FOR REDUCING REWARDING EFFECTS OF MORPHINE WITHOUT AFFECTING ITS ANALGESIC EFFECTS” (The Board of Trustees of the Leland Stanford Junior …, priority 2019, published 2022)

System: mice
Test: morphine conditioned place preference (CPP) paradigm to assess morphine reward
Format: in vivo
Text: The ability of a MAGL inhibitor to attenuate the rewarding effect of an opioid can also be assessed in animal models. For example, a morphine conditioning place preference (CPP) paradigm can be used as a preclinical model to measure reward, in which mice are conditioned to associate a particular chamber with the rewarding effects of morphine (see, e.g., Example 1). Reward, e.g., as measured by a preference for the morphine chamber, can be assessed at different phases of morphine conditioning, for example to assess if a MAGL inhibitor decreases or inhibits the establishment of the rewarding effect or of its maintenance or expression.
Endocannabinoid signaling is primarily regulated by MAGL and FAAH, the two enzymes responsible for catabolizing the endogenous cannabinoids, 2-AG and anandamide. Although some studies have shown that inhibition of these enzymes reduces certain aspects of morphine withdrawal, no studies exist that have examined their role in morphine reward. We utilized the morphine conditioned place preference (CPP) paradigm, to assess morphine reward, in which mice are conditioned to associate a particular chamber with the rewarding effects of morphine (FIG. 1A). […]

## Cc1ncccc1-c1cc(F)cc(N2C[C@H](N3CCN(c4ncccn4)CC3)CC2=O)c1 [(R)-3t, (4R)-1-[3-fluoro-5-(2-methylpyridin-3-yl)phenyl]-4-[4-(pyrimidin-2-yl)piperazin-1-yl]pyrrolidin-2-one]
(R)-3t before each conditioning session, n=11
  Day 1 vs Day 6, Bonferroni post hoc test, acquisition of morphine CPP (FIG. 3B): not significant

## O=C(Oc1ccc([N+](=O)[O-])cc1)N1CCC(C(O)(c2ccc3c(c2)OCO3)c2ccc3c(c2)OCO3)CC1 [JZL-184, (4-nitrophenyl) 4-[bis(1,3-benzodioxol-5-yl)-hydroxymethyl]piperidine-1-carboxylate]
JZL-184 prior to each morphine conditioning session, n=8
  Day 1 vs Day 6, Bonferroni post hoc test, acquisition of morphine CPP (FIG. 1C): no significant
